Measured values reported in US6406709B1, “Method for inhibiting nematocyst discharge” (Nidaria Technology Ltd., priority 1997, dated 2002).

Tested on: nematocysts of jellyfish or sea anemone
Settings: 0.2% in glycerol

CN(C)CCOC(c1ccccc1)c1ccccc1.Cl [diphenhydramine, diphenhydramine hydrochloride]
inhibition of nematocyst discharge into human skin samples: effective at inhibiting nematocyst discharge
